The values that follow come from publication PMC4822050, “Hemi-methylated DNA opens a closed conformation of UHRF1 to facilitate its histone recognition” (Nature Communications, 2016).

Assay type in all cases: binding
One series concerns hm-DNA (12 bp). Put plainly: ITC, hm-DNA titrated into UHRF1 domains. The note with it: hm-DNA in syringe. As to the method: (§1) For competition ITC experiments: the indicated proteins were pre-incubated with competitive peptide, protein or hm-DNA (at 1:2 molar ratio if not specified) for 10 min followed by ITC measurements as described above. Proteins, DNA and peptides were prepared within ITC buffer containing 10 mM HEPES, pH 8.0, 100 mM NaCl. The data were fitted by software Origin 7.0. All ITC results were summarized in Supplementary Table 2 and raw data were shown in Supplementary Fig. 9.
For orientation: ITC needs no label: the signal is the heat of the interaction.

The test system of a further series is RFTS^DNMT1. Nature of the series: ITC, RFTS of DNMT1 with SRA or SRA-Spacer. How it is done: as §1
In a further series the test system is H3K9me3 peptide (1–17). Nature of the series: ITC, H3K9me3 peptide (1-17) titrated into UHRF1 proteins. The note with it: for N: ITC stoichiometry; for N / ΔH / ΔS: H3K9me3 in syringe, named protein in cell; for ΔH / ΔS: ITC. How it is done:
as §1

B1: SRA–Spacer: human UHRF1 residues 414–674 (protein)
chain: PSNHYGPIPGIPVGTMWRFRVQVSESGVHRPHVAGIHGRSNDGAYSLVLAGGYEDDVDHGNFFTYTGSGGRDLSGNKRTAEQSCDQKLTNTNRALALNCFAPINDQEGAEAKDWRSGKPVRVVRNVKGGKNSKYAPAEGNRYDGIYKVVKYWPEKGKSGFLVWRYLLRRDDDEPGPWTKEGKDRIKKLGLTMQYPEGYLEALANREREKENSKREEEEQQEGGFASPRTGKGKWKRKSAGGGPSRAGSPRRTSKKTKVEPY
modifications: left off: GST, end not stated, cleaved
For the molecule B1, the N came out at 1.15±0.0175 in the series on hm-DNA (12 bp) (ITC stoichiometry) and 0.749±0.0361 in the series on RFTS^DNMT1 (ITC stoichiometry). In addition, the ΔH is -4.355 ± 0.09057 kcal/mol with hm-DNA (12 bp) (ITC) and -4.721 ± 0.317 kcal/mol in the series on RFTS^DNMT1 (ITC). Moreover, the ΔS in the series on hm-DNA (12 bp) (ITC) worked out at 11.4 cal/mol/deg; in the series with RFTS^DNMT1 (ITC), 7.43 cal/mol/deg.

B2: TTD–PHD: human UHRF1 residues 134–366 (protein)
chain: LYKVNEYVDARDTNMGAWFEAQVVRVTRKAPSRDEPCSSTSRPALEEDVIYHVKYDDYPENGVVQMNSRDVRARARTIIKWQDLEVGQVVMLNYNPDNPKERGFWYDAEISRKRETRTARELYANVVLGDDSLNDCRIIFVDEVFKIERPGEGSPMVDNPMRRKSGPSCKHCKDDVNRLCRVCACHLCGGRQDPDKQLMCDECDMAFHIYCLDPPLSSVPSEDEWYCPECRND
modifications: left off: GST, end not stated, cleaved
As for B2, in the series on H3K9me3 peptide (1–17), the N is 0.990±0.00526, the ΔH is on record as -1.260E4±95.03 cal/mol and the ΔS is reported as -12.0 cal/mol/deg.

B3: TTD: tandem Tudor domain of human UHRF1 (residues 134–285) (protein, UniProt Q96T88 134-285, looked up, fragment)
chain: LYKVNEYVDARDTNMGAWFEAQVVRVTRKAPSRDEPCSSTSRPALEEDVIYHVKYDDYPENGVVQMNSRDVRARARTIIKWQDLEVGQVVMLNYNPDNPKERGFWYDAEISRKRETRTARELYANVVLGDDSLNDCRIIFVDEVFKIERPGE
modifications: tandem Tudor domain
B3: in the series on H3K9me3 peptide (1–17), the N came out at 1.28±0.00794, the ΔH was -8.136 ± 0.07152 kcal/mol and the ΔS is recorded as -0.455 cal/mol/deg.

B4: SpacerK648D: mutation K648D of the Spacer (protein)
chain: PGPWTKEGKDRIKKLGLTMQYPEGYLEALANREREKENSKREEEEQQEGGFASPRTGKGKWDRKSAGGGPSRAGSPRRTSKKTKVEPY
modifications: left off: GST, end not stated, cleaved
notes: mutation K648D of the Spacer
Take B4: in the series with H3K9me3 peptide (1–17) (competition ITC, 1:2), the “N of H3K9me3 binding to the TTD in the presence of the named protein” value (“N of H3K9me3 binding to the TTD” for short) came out at 1.17±0.0184, the “ΔH of H3K9me3 binding to the TTD in the presence of the named protein” value (from here on “ΔH of H3K9me3 binding to the TTD”) is -5.049 ± 0.1182 kcal/mol and the “ΔS of H3K9me3 binding to the TTD in the presence of the named protein” value (shortened to “ΔS of H3K9me3 binding to the TTD”) is recorded as 6.41 cal/mol/deg.

B5: Spacer: C-terminal spacer region of human UHRF1 (residues 587–674) (protein)
chain: PGPWTKEGKDRIKKLGLTMQYPEGYLEALANREREKENSKREEEEQQEGGFASPRTGKGKWKRKSAGGGPSRAGSPRRTSKKTKVEPY
modifications: left off: GST, end not stated, cleaved
As for B5, in the series with H3K9me3 peptide (1–17) (competition ITC, 1:2), the “N of H3K9me3 binding to TTD–PHD in the presence of the Spacer” value came to 0.993±0.00481, the “ΔH of H3K9me3 binding to TTD–PHD in the presence of the Spacer” value was -8.455 ± 0.05598 kcal/mol and the “ΔS of H3K9me3 binding to TTD–PHD in the presence of the Spacer” value was -2.54 cal/mol/deg.

B6: SpacerS651D: mutation S651D of the Spacer (protein)
chain: PGPWTKEGKDRIKKLGLTMQYPEGYLEALANREREKENSKREEEEQQEGGFASPRTGKGKWKRKDAGGGPSRAGSPRRTSKKTKVEPY
modifications: left off: GST, end not stated, cleaved
notes: mutation S651D of the Spacer
For B6, in the series on H3K9me3 peptide (1–17) (competition ITC, 1:2), the “N of H3K9me3 binding to the TTD” value worked out at 1.21±0.00447, the “ΔH of H3K9me3 binding to the TTD” value is -6.184 ± 0.03211 kcal/mol and the “ΔS of H3K9me3 binding to the TTD” value is listed as 5.73 cal/mol/deg.

B7: SpacerR649A: mutation R649A of the Spacer (protein)
chain: PGPWTKEGKDRIKKLGLTMQYPEGYLEALANREREKENSKREEEEQQEGGFASPRTGKGKWKAKSAGGGPSRAGSPRRTSKKTKVEPY
modifications: left off: GST, end not stated, cleaved
notes: mutation R649A of the Spacer
Take B7: in the series on H3K9me3 peptide (1–17) (competition ITC, 1:2), the “N of H3K9me3 binding to the TTD” value was 1.13±0.0218, the “ΔH of H3K9me3 binding to the TTD” value is -6.3 ± 0.1667 kcal/mol and the “ΔS of H3K9me3 binding to the TTD” value turned out to be 3.79 cal/mol/deg.

B8: UHRF1∆627-674: spacer deletion mutant of UHRF1 (residues 627–674 deleted) (protein)
chain: MWIQVRTMDGRQTHTVDSLSRLTKVEELRRKIQELFHVEPGLQRLFYRGKQMEDGHTLFDYEVRLNDTIQLLVRQSLVLPHSTKERDSELSDTDSGCCLGQSESDKSSTHGEAAAETDSRPADEDMWDETELGLYKVNEYVDARDTNMGAWFEAQVVRVTRKAPSRDEPCSSTSRPALEEDVIYHVKYDDYPENGVVQMNSRDVRARARTIIKWQDLEVGQVVMLNYNPDNPKERGFWYDAEISRKRETRTARELYANVVLGDDSLNDCRIIFVDEVFKIERPGEGSPMVDNPMRRKSGPSCKHCKDDVNRLCRVCACHLCGGRQDPDKQLMCDECDMAFHIYCLDPPLSSVPSEDEWYCPECRNDASEVVLAGERLRESKKKAKMASATSSSQRDWGKGMACVGRTKECTIVPSNHYGPIPGIPVGTMWRFRVQVSESGVHRPHVAGIHGRSNDGAYSLVLAGGYEDDVDHGNFFTYTGSGGRDLSGNKRTAEQSCDQKLTNTNRALALNCFAPINDQEGAEAKDWRSGKPVRVVRNVKGGKNSKYAPAEGNRYDGIYKVVKYWPEKGKSGFLVWRYLLRRDDDEPGPWTKEGKDRIKKLGLTMQYPEGYLEALANREREKENSKSLTAQQSSLIREDKSNAKLWNEVLASLKDRPASGSPFQLFLSKVEETFQCICCQELVFRPITTVCQHNVCKDCLDRSFRAQVFSCPACRYDLGRSYAMQVNQPLQTVLNQLFPGYGNGR
modifications: left off: GST, end not stated, cleaved
With B8, in the series on H3K9me3 peptide (1–17), the N is listed as 0.988±0.0133, the ΔH is -1.004E4±185.3 cal/mol and the ΔS is -7.32 cal/mol/deg.

B9: UHRF1D334A&∆627-674: UHRF1 with mutation D334A and deletion of residues 627–674 (protein)
chain: MWIQVRTMDGRQTHTVDSLSRLTKVEELRRKIQELFHVEPGLQRLFYRGKQMEDGHTLFDYEVRLNDTIQLLVRQSLVLPHSTKERDSELSDTDSGCCLGQSESDKSSTHGEAAAETDSRPADEDMWDETELGLYKVNEYVDARDTNMGAWFEAQVVRVTRKAPSRDEPCSSTSRPALEEDVIYHVKYDDYPENGVVQMNSRDVRARARTIIKWQDLEVGQVVMLNYNPDNPKERGFWYDAEISRKRETRTARELYANVVLGDDSLNDCRIIFVDEVFKIERPGEGSPMVDNPMRRKSGPSCKHCKDDVNRLCRVCACHLCGGRQDPDKQLMCAECDMAFHIYCLDPPLSSVPSEDEWYCPECRNDASEVVLAGERLRESKKKAKMASATSSSQRDWGKGMACVGRTKECTIVPSNHYGPIPGIPVGTMWRFRVQVSESGVHRPHVAGIHGRSNDGAYSLVLAGGYEDDVDHGNFFTYTGSGGRDLSGNKRTAEQSCDQKLTNTNRALALNCFAPINDQEGAEAKDWRSGKPVRVVRNVKGGKNSKYAPAEGNRYDGIYKVVKYWPEKGKSGFLVWRYLLRRDDDEPGPWTKEGKDRIKKLGLTMQYPEGYLEALANREREKENSKSLTAQQSSLIREDKSNAKLWNEVLASLKDRPASGSPFQLFLSKVEETFQCICCQELVFRPITTVCQHNVCKDCLDRSFRAQVFSCPACRYDLGRSYAMQVNQPLQTVLNQLFPGYGNGR
modifications: left off: GST, end not stated, cleaved
In the series with H3K9me3 peptide (1–17), B9 showed an N of 0.979±0.02, a ΔH of -6.173 ± 0.204 kcal/mol and a ΔS of 1.96 cal/mol/deg.
